Paper PMC6062831 (ACS Central Science, 2018)

Chains of the proteins cited; added tags and fusions are not shown. Lines headed by an entry give the natural chain unless they say otherwise; changes in a name come on top.
UniProt P05804: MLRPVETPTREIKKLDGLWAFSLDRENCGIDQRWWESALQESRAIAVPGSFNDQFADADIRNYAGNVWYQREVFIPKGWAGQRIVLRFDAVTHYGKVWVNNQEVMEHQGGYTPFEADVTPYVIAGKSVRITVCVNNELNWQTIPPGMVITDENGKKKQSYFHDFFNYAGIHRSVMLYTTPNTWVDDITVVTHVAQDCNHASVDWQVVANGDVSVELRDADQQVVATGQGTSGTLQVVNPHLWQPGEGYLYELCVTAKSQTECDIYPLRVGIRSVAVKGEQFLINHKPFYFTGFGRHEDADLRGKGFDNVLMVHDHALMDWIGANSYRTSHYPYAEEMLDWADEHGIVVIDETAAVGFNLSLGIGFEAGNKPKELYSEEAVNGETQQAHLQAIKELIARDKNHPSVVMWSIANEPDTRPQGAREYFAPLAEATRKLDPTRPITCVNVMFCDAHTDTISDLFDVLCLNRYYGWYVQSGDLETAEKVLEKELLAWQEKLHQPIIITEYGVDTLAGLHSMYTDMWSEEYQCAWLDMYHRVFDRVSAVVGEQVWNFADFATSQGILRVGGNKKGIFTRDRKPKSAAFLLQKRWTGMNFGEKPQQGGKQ

Molecular target: EcGUS (Escherichia coli, UniProt P05804)
Experiment: biochemical

For `Clc1ccc2c(c1)C(N1CCNCC1)=Nc1ccccc1O2` [amoxapine], the IC50 was 530 ± 10 nM.
